Laboratory results: patent US11591569B2, “Methods for epicardial differentiation of human pluripotent stem cells” (Wisconsin Alumni Research Foundation, priority 2015, dated 2023)
Some of these results come from one statement about several compounds together.

Test system: hPSC-derived epicardial cells
Assay: Long-term expansion of hPSC-derived epicardial cells
Format: cell-based, human
Conditions: 0.5 μM A83-01 or 2 μM SB431542
Procedure: Long-Term Maintenance of hPSC-Derived Epicardial Cells: To expand the epicardial cells, confluent cells on day 3 or 4 of differentiation were split 1:3 at a density of 0.04 to 0.08 million cells/cm^2 using Versene (Life Technologies) or Accutase and routinely passaged onto gelatin-coated plates in LaSR basal medium or RPMI/Vc/Ins medium and 0.5 μM A83-01 (Stemgent) or 2 μM SB431542 (Stemgent) with medium changed daily until the cells reached confluence. Overnight treatment of 5 μM Y27632 and 1% human recombinant albumin (Sigma-Aldrich) on single cells during passage was used to improve cell attachment and survival, but they were not required once cells attached.
Flow Cytometry Analysis: Cells were dissociated into single cells with Accutase for 10 minutes and then fixed with 1% paraformaldehyde for 20 minutes at room temperature and stained with primary and secondary antibodies (Table 1) in PBS plus 0.1% Triton X-100 and 0.5% BSA. Data were collected on a FACSCaliber flow cytometer (Beckton Dickinson) and analyzed using FlowJo. FACS gating was based on the corresponding isotype antibody control.

NC(=O)c1ccc(-c2nc(-c3ccc4c(c3)OCO4)c(-c3ccccn3)[nH]2)cc1 [SB431542]
Cells generated from a single hPSC-derived epicardial cell clone: more than 10 million cells | Population doublings of hPSC-derived epicardial cells (passaged and counted every four days): at least 25 population doublings
